Measurements as given in US20110237508A1, “Peptide Formulations and Uses Thereof” (RIJKSUNIVERSITEIT GRONINGEN, priority 2008, published 2011).
The name of at least one read-out is uncertain.

What was measured:
[1] = Oxytocin recovery by RP-HPLC after 4 weeks storage at 4 or 55° C.; assay type: physicochemical; details: for oxytocin recovery: 4° C.
Experimental: As shown herein below, the stabilizing effect of the combination of a buffer and at least one source of divalent metal ions at a concentration of at least 2 mM in an aqueous oxytocin formulation was determined by measuring the recovery of oxytocin (remaining oxytocin as % of initial amount), the amount of oxytocin-monomers (% of total remaining oxytocin) and/or the level of aggregation (aggregated oxytocin as % of total remaining oxytocin) upon prolonged storage at elevated (e.g. 55° C.) temperatures. These parameters can be assessed by using any method for analysis deemed suitable by a person skilled in the art. Examples of suitable methods for analysis include, but are not limited to, reversed-phase high-performance liquid chromatography (RP-HPLC) and high-performance size exclusion chromatography (HP-SEC). Thus, suitable concentrations of divalent metal ions to achieve the stabilizing effect at elevated temperatures can be determined by those skilled in the art. They may vary, e.g. depending on the composition of the formulation or its intended application. In one embodiment, a formulation comprises oxytocin or vasopressin and at least 2 mM, preferably at least 5, more preferably at least 10 mM divalent metal ions and a buffer. In another embodiment, a pH-buffered formulation comprises divalent metal ions in a concentration of up to 150 mM, preferably up to 100 mM, more preferably up to 50 mM. […]
Samples of each formulation were stored for 4 weeks at 4° C. […] Effects on stability were determined by measuring the recovery of oxytocin and the percentage of oxytocin-monomers.
The thermal stability of oxytocin in the presence of combinations of a buffer and monovalent metal ions was investigated. […] Effects on stability were determined by measuring the recovery of oxytocin and the percentage of oxytocin-monomers.
Citrate buffer (CB) was used at concentrations of 5, 10 or 50 mM. […] Effects on stability were determined by measuring the recovery of oxytocin and the percentage of oxytocin-monomers. […]

[2] = Long-term stability study at 40° C., oxytocin recovery by RP-HPLC; assay type: physicochemical; details: citrate buffer and Ca2+ compared to citric acid alone, pH 4.5, 40° C., 1, 2, 3 or 6 months
Experimental: A long-term stability study was performed to assess the thermal stability of pH-buffered oxytocin formulations comprising divalent metal ions over prolonged periods. Citrate buffer (CB) was added in concentrations of 5, 10 or 50 mM to formulations comprising 0.1 mg/ml oxytocin and 0, 10 or 50 mM Ca^2+ (CaCl2). […] Samples of each formulation were stored for 1, 2, 3 or 6 months at 40° C. Thereafter, all samples were stored under cooled conditions (2-8° C.) before analysis by RP-HPLC and HP-SEC. Effects on stability were determined by measuring the recovery of oxytocin and the percentage of oxytocin-monomers.

Q: What does the source list for `CC[C@H](C)[C@@H]1NC(=O)[C@H](Cc2ccc(O)cc2)NC(=O)[C@@H](N)CSSC[C@@H](C(=O)N2CCC[C@H]2C(=O)N[C@@H](CC(C)C)C(=O)NCC(N)=O)NC(=O)[C@H](CC(N)=O)NC(=O)[C@H](CCC(N)=O)NC1=O` [oxytocin]?
A: oxytocin recovery ([1]; non-buffered pure water with Ca2+ or Zn2+ (2-50 mM), pH 4.5, 4 weeks): increased; stabilizing effect on oxytocin recovery ([1]; non-buffered pure water with divalent metal ions (2-50 mM), pH 4.5, 4 weeks, 55° C.): only poor stabilizing effects; oxytocin recovery ([1]; with buffer, no divalent metal ions, 4 weeks): substantially increased; oxytocin recovery [2]: increased at every time point
